The supplement of paper PMC10849652
The other results are listed elsewhere or left out.

Chains of the proteins cited; added tags and fusions are not shown. Lines headed by an entry give the natural chain unless they say otherwise; changes in a name come on top.
UniProt P52655, whole entry, looked up: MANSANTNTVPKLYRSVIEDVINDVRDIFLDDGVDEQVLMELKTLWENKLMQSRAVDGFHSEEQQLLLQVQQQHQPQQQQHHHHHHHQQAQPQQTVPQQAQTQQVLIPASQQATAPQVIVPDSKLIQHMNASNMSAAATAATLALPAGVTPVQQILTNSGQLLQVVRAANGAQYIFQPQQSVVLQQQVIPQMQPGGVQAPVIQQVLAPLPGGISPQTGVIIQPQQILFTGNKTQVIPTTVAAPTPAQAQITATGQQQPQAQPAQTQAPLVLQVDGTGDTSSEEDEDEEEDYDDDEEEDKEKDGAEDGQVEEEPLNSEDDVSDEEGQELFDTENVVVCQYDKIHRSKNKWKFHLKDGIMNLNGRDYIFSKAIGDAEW
UniProt O94927: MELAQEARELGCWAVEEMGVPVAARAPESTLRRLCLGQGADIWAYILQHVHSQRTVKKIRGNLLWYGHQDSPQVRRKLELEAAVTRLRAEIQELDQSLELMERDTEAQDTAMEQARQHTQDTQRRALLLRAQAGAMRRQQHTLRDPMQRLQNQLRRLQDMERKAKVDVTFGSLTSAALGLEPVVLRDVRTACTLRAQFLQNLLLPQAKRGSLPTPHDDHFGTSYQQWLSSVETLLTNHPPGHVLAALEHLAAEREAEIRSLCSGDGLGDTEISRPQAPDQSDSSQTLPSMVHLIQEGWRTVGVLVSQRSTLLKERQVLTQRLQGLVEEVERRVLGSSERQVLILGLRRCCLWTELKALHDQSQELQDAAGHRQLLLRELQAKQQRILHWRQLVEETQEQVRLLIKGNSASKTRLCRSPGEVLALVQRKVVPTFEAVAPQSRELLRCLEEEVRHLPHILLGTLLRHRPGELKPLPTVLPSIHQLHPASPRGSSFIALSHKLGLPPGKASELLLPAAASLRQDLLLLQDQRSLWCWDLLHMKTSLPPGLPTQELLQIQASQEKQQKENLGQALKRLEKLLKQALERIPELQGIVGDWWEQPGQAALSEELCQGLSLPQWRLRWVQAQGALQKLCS
UniProt P21266: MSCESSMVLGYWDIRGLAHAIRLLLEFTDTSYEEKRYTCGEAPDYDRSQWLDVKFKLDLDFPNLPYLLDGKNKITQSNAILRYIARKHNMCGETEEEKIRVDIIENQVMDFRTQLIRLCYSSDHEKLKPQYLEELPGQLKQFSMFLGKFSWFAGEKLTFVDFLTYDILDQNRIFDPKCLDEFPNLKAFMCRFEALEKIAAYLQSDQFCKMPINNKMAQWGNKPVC
UniProt Q8TAA5: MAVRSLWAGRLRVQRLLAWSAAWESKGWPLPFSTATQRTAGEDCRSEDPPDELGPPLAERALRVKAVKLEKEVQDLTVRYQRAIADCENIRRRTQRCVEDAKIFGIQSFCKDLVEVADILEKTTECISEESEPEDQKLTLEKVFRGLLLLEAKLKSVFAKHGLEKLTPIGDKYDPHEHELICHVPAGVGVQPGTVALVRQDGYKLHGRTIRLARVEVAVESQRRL
UniProt P62993, whole entry, looked up: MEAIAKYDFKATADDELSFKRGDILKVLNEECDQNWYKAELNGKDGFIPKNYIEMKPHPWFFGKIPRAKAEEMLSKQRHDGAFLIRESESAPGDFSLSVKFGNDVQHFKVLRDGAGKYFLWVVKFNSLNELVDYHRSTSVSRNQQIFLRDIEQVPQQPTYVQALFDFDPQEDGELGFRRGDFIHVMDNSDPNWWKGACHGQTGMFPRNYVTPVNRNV
UniProt P25098: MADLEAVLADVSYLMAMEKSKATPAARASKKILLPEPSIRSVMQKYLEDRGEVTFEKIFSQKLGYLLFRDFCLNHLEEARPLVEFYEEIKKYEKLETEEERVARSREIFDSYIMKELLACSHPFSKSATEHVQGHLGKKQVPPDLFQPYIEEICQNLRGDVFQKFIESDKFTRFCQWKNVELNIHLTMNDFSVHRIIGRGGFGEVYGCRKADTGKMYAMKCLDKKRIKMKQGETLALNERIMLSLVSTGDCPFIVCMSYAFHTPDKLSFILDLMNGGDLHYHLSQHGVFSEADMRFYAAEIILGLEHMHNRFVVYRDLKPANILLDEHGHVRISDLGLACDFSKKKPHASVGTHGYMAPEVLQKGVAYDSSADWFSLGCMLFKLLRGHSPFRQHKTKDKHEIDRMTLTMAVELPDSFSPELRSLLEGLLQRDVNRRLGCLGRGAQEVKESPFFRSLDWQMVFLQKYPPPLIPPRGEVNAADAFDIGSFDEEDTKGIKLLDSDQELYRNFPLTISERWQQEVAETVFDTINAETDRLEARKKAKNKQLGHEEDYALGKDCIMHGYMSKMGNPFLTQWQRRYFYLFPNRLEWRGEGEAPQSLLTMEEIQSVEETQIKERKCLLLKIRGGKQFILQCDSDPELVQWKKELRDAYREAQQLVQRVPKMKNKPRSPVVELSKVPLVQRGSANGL
UniProt P04921: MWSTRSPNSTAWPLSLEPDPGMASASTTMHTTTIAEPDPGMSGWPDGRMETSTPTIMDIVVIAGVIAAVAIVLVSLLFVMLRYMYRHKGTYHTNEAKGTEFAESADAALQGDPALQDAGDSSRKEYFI
UniProt P15170, whole entry, looked up: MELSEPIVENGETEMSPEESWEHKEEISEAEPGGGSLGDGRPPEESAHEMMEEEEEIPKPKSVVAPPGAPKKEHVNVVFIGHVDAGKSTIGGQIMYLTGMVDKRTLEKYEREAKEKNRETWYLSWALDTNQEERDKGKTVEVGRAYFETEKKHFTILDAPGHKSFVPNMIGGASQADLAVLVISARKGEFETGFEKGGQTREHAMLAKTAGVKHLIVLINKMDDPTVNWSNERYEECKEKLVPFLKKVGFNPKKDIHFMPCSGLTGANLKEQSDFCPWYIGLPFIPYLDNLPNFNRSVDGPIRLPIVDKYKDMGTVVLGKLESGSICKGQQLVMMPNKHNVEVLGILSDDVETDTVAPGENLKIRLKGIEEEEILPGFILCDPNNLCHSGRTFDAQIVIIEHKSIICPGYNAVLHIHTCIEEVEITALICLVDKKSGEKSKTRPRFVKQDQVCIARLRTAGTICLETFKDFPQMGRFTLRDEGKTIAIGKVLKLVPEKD
UniProt Q14687: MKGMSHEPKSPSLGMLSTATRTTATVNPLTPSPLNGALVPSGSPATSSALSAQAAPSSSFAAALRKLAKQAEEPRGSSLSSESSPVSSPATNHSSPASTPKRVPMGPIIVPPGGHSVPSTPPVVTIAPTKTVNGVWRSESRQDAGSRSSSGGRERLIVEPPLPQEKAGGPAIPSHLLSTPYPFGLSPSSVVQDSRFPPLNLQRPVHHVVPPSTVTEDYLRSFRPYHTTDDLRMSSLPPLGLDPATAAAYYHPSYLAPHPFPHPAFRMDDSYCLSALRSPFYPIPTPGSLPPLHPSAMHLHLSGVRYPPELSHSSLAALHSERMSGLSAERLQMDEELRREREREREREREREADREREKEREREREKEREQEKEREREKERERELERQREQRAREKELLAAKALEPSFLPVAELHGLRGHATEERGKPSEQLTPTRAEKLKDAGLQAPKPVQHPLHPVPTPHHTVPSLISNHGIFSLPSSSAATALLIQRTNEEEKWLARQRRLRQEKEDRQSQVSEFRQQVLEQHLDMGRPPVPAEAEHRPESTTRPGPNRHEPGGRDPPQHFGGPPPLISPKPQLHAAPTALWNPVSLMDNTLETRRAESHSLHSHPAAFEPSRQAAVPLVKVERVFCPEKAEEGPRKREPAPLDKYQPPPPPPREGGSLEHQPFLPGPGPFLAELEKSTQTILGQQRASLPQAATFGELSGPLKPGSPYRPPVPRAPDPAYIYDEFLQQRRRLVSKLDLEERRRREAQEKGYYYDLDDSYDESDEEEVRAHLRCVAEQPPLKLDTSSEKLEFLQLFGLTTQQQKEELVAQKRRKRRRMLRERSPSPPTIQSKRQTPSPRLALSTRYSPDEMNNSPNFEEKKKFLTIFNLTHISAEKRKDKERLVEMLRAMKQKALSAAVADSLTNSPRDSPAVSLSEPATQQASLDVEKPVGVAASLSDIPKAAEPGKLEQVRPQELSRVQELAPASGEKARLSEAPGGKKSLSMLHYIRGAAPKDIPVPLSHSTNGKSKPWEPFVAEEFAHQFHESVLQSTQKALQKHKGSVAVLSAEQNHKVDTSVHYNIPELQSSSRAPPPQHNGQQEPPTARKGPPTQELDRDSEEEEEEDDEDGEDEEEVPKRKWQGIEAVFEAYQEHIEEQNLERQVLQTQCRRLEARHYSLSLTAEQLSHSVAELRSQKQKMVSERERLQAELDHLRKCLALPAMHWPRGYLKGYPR
UniProt Q7Z4Q2: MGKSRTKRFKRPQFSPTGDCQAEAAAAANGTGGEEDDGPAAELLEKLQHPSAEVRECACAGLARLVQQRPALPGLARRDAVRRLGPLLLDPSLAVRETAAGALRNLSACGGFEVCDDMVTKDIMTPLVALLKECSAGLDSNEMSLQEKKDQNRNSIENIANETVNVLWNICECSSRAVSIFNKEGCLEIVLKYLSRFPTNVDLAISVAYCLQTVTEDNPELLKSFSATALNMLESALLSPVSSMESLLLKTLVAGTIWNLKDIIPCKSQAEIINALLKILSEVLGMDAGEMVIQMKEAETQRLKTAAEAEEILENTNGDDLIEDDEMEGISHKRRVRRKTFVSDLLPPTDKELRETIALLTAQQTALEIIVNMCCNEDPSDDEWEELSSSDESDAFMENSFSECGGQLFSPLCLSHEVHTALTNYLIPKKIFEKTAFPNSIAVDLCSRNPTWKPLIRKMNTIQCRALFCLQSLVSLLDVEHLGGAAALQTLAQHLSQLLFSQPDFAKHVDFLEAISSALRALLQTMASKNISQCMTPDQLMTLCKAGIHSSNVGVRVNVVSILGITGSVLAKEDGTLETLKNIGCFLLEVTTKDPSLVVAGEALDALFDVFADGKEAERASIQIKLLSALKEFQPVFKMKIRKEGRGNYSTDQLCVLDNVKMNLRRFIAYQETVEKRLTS
UniProt O15379: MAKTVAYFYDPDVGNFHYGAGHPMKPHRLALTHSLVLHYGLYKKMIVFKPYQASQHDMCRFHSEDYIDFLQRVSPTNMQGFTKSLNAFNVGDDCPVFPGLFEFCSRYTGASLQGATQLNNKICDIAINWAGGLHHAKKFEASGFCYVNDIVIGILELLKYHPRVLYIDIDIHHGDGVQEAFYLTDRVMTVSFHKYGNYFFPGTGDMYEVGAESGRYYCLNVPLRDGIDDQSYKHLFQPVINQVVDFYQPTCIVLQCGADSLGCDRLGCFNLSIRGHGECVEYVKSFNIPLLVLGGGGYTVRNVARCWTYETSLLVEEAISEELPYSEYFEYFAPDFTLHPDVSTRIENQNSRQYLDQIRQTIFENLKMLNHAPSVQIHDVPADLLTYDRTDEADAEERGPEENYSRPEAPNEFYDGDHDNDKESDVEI
UniProt P16401, whole entry, looked up: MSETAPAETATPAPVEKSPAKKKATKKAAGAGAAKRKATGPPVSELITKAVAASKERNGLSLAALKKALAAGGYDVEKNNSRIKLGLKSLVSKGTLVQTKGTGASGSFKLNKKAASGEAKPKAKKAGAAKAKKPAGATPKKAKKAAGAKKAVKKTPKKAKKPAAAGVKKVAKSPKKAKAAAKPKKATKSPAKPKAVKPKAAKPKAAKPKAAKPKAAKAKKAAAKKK
UniProt Q9P0R6: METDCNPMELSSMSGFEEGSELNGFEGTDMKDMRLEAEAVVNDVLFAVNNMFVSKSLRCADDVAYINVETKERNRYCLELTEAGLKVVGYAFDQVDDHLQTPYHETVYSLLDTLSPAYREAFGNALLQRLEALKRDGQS
UniProt Q4V328: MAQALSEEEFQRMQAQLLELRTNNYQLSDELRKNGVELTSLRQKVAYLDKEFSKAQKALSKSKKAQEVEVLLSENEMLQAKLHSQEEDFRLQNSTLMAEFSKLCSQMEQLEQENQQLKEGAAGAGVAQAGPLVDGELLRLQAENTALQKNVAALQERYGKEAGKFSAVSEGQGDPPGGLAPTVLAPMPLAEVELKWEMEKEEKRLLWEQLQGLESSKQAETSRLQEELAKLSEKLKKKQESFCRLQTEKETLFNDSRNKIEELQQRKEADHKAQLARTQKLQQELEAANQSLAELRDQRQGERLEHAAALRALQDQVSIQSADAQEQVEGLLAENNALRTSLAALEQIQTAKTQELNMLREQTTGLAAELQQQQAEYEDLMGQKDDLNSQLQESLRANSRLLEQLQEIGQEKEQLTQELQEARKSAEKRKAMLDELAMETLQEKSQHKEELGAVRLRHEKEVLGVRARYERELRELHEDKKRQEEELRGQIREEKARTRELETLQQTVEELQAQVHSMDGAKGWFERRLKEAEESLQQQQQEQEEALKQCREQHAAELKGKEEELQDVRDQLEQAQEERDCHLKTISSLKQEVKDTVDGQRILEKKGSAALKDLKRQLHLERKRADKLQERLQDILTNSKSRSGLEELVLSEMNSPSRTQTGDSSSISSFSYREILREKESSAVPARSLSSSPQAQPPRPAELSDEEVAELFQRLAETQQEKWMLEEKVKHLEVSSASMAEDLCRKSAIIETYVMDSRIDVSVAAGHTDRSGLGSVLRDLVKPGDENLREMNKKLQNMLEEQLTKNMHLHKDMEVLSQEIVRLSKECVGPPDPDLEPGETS

Key:
Assay in all cases: log2 fold change, soluble protein after heating vs DMSO (PISA); higher = thermal stabilisation; K562 lysate, 10 uM; active = over 0.2 and 3.5 SD of the protein, either way, in both replicates (recomputed)
[1] = compound: CCCS(=O)(=O)Nc1ccc(F)c(C(=O)c2c[nH]c3ncc(-c4ccc(Cl)cc4)cc23)c1F [vemurafenib]
Summary of the method: (§1)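 Pellets of K562 cells were dounce-homogenised in PBS pH 7.4 with 1 mM MgCl2, and the crude extract was held at 1 mg/mL protein for a 30 min treatment with 10 μM compound. Aliquots were heated for 3 min over 48°C-58°C and pooled before NP-40 was added to 0.5% at 4°C. The supernatant from 21,000xg for 90 min was quantified by TMTpro 16plex LC-MS/MS with channel sums equalised. Values are reported from duplicates as log-two fold change in thermal stability relative to solvent controls.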

[2] = compound: CCCS(=O)(=O)Nc1ccc(F)c(C(=O)c2c[nH]c3ncc(Cl)cc23)c1F
Summary of the method: as §1

[3] = compound: CCN(CCCOc1ccc2c(Nc3cc(CC(=O)Nc4cccc(F)c4)[nH]n3)ncnc2c1)CCOP(=O)(O)O [barasertib]
Summary of the method: as §1

[4] = compound: CC[C@@H]1C(=O)N(C)c2cnc(Nc3ccc(C(=O)NC4CCN(C)CC4)cc3OC)nc2N1C1CCCC1
Summary of the method: as §1

[5] = compound: CC[C@@H]1C(=O)N(C)c2cnc(Nc3ccc(C(=O)N[C@H]4CC[C@H](N5CCN(CC6CC6)CC5)CC4)cc3OC)nc2N1C(C)C [volasertib]
Summary of the method: as §1

[6] = compound: CCn1c(C(=O)N(C2CC2)C2CC2)cc2c3c(ncn3C)c(Nc3cc(C)n(C)n3)nc21
Summary of the method: as §1

[7] = compound: CCn1cc(-c2ccnc3[nH]c(-c4cccc(CN(C)C)c4)cc23)c(-c2ccc(NC(=O)N(C)C)cc2)n1
Summary of the method: as §1

[8] = compound: CN1CCC(CNc2ccc3ncc(-c4cccc(OC(F)(F)F)c4)n3n2)CC1
Summary of the method: as §1

[9] = compound: CN1CCN(CCOc2cc(OC3CCOCC3)c3c(Nc4c(Cl)ccc5c4OCO5)ncnc3c2)CC1 [saracatinib]
Summary of the method: as §1

[10] = compound: CN1CCN(c2nc(C3=C(c4c[nH]c5ccccc45)C(=O)NC3=O)c3ccccc3n2)CC1 [sotrastaurin]
Summary of the method: as §1

[11] = compound: CN1CC[C@H](c2c(O)cc(O)c3c(=O)cc(-c4ccccc4Cl)oc23)[C@H](O)C1 [alvocidib]
Summary of the method: as §1

[12] = compound: CN1CCc2c(c3ccccc3n2Cc2ccc(C(=O)NO)cc2)C1 [Tubastatin A]
Summary of the method: as §1

[13] = compound: CNC(=O)C1=CC=CC=C1NC2=NC(=NC=C2Cl)NC3=C(C=C(C=C3)N4CCOCC4)OC
Summary of the method: as §1

[14] = compound: CNC(=O)c1ccc(Nc2ncc(C(F)(F)F)c(NCc3nccnc3N(C)S(C)(=O)=O)n2)cc1 [defactinib]
Summary of the method: as §1

[15] = compound: CNc1nc(-c2ccc3c(N)n[nH]c3c2)cc(N2C[C@@H](C(=O)NC3CCCCC3)CC[C@H]2C)n1
Summary of the method: as §1

[16] = compound: COC(=O)N[C@@H](C)CNc1nccc(-c2cn(C(C)C)nc2-c2cc(Cl)cc(NS(C)(=O)=O)c2F)n1 [encorafenib]
Summary of the method: as §1

[17] = compound: COC(=O)[C@H](CCSC)NC(=O)C1=C(C=C(C=C1)NC[C@H](CS)N)C2=CC=CC=C2
Summary of the method: as §1

[18] = compound: COc1cc(Nc2ncc3c(n2)-c2ccc(Cl)cc2C(c2c(F)cccc2OC)=NC3)ccc1C(=O)O [alisertib]
Summary of the method: as §1

[19] = compound: COc1cc2nc(-c3cc(F)ccc3O)nc(N[C@@H]3CNC[C@H]3C(C)(C)O)c2cc1OC
Summary of the method: as §1

[20] = compound: COc1cc2ncnc(Nc3ccc(F)c(Cl)c3)c2cc1OCCCN1CCOCC1 [gefitinib]
Summary of the method: as §1

Measured: log2 fold change

GTF2A1 (UniProt P52655)
inactive: [1] -0.028 | [2] 0.01 | [3] 0.018 | [4] 0.042 | [5] 0.035 | [6] 0.015 | [7] 0.033 | [8] -0.042 | [9] -0.004 | [10] 0.024 | [11] 0.165 | [12] 0.006 | [13] -0.047 | [14] 0.033 | [15] 0.048 | [16] -0.005 | [17] -0.026 | [18] -0.029 | [19] -0.024 | [20] 0.008

HAGH (UniProt Q16775)
inactive: [1] -0.001 | [2] 0.008 | [3] 0.003 | [4] 0.013 | [5] 0.027 | [6] -0.023 | [7] -0.042 | [8] 0.097 | [9] 0.058 | [10] -0.004 | [11] -0.049 | [12] 0.057 | [13] 0.021 | [14] 0.032 | [15] 0.094 | [16] -0.013 | [17] -0.023 | [18] 0.042 | [19] 0.045 | [20] 0.011

HAUS5 (UniProt O94927)
inactive: [1] 0.004 | [2] 0.048 | [3] -0.02 | [4] -0.038 | [5] -0.016 | [6] 0.026 | [7] 0.01 | [8] -0.087 | [9] -0.008 | [10] 0.03 | [11] 0.062 | [12] -0.146 | [13] 0.007 | [14] 0.026 | [15] 0.015 | [16] -0.006 | [17] 0.092 | [18] -0.01 | [19] 0.006 | [20] -0.007

GSTM3 (UniProt P21266)
inactive: [1] 0.042 | [2] 0.098 | [3] 0.075 | [4] 0 | [5] 0.024 | [6] -0.051 | [7] 0.027 | [8] -0.057 | [9] 0.043 | [10] 0.023 | [11] 0.029 | [12] -0.085 | [13] -0.03 | [14] 0.011 | [15] -0.015 | [16] 0.02 | [17] 0.03 | [18] -0.088 | [19] -0.007 | [20] -0.084

GRPEL2 (UniProt Q8TAA5)
inactive: [1] 0.012 | [2] 0.026 | [3] 0.007 | [4] 0.002 | [5] 0.009 | [6] -0.004 | [7] -0.223 | [8] 0.053 | [9] 0.024 | [10] 0.015 | [11] -0.041 | [12] -0.038 | [13] 0.083 | [14] 0.007 | [15] 0.008 | [16] -0.08 | [17] 0.103 | [18] -0.045 | [19] -0.154 | [20] 0.03

GRB2 (UniProt P62993)
inactive: [1] 0.004 | [2] -0.022 | [3] -0.039 | [4] 0.042 | [5] 0.014 | [6] -0.035 | [7] -0.002 | [8] 0.002 | [9] 0.002 | [10] 0.016 | [11] 0.006 | [12] -0.002 | [13] -0.013 | [14] 0.006 | [15] 0.012 | [16] -0.003 | [17] -0.049 | [18] 0.015 | [19] -0.004 | [20] 0.008

GRK2 (UniProt P25098)
inactive: [1] -0.019 | [2] 0.016 | [3] -0.006 | [4] -0.08 | [5] -0.05 | [6] 0.003 | [7] -0.054 | [8] -0.016 | [9] -0.009 | [10] 0.01 | [11] 0.001 | [12] -0.08 | [13] 0.068 | [14] 0.106 | [15] 0.044 | [16] 0.001 | [17] 0.086 | [18] -0.042 | [19] 0.066 | [20] -0.041

GYPC (UniProt P04921)
inactive: [1] 0.066 | [2] -0.017 | [3] 0.377 | [4] 0.017 | [5] 0 | [6] 0.065 | [7] -0.083 | [8] -0.001 | [9] -0.006 | [10] 0.084 | [11] 0.081 | [12] 0.271 | [13] 0.119 | [14] 0.052 | [15] 0.088 | [16] 0.03 | [17] -0.052 | [18] 0.076 | [19] 0.024 | [20] 0.099

Retrieved one by one from the list above (two):
GSTM3 (UniProt P21266)
inactive: [1] 0.042 | [2] 0.098 | [3] 0.075 | [4] 0 | [5] 0.024 | [6] -0.051 | [7] 0.027 | [8] -0.057 | [9] 0.043 | [10] 0.023 | [11] 0.029 | [12] -0.085 | [13] -0.03 | [14] 0.011 | [15] -0.015 | [16] 0.02 | [17] 0.03 | [18] -0.088 | [19] -0.007 | [20] -0.084

GRPEL2 (UniProt Q8TAA5)
inactive: [1] 0.012 | [2] 0.026 | [3] 0.007 | [4] 0.002 | [5] 0.009 | [6] -0.004 | [7] -0.223 | [8] 0.053 | [9] 0.024 | [10] 0.015 | [11] -0.041 | [12] -0.038 | [13] 0.083 | [14] 0.007 | [15] 0.008 | [16] -0.08 | [17] 0.103 | [18] -0.045 | [19] -0.154 | [20] 0.03

(cont.)

GSPT1 isoform 3 (UniProt P15170)
inactive: [1] -0.021 | [2] 0 | [3] -0.014 | [4] 0.032 | [5] 0.003 | [6] 0.008 | [7] -0.019 | [8] 0.032 | [9] 0.007 | [10] -0.033 | [11] 0.032 | [12] -0.012 | [13] 0.006 | [14] 0.01 | [15] 0.019 | [16] -0.012 | [17] -0.024 | [18] 0.014 | [19] -0.001 | [20] -0.037

GSE1 (UniProt Q14687)
inactive: [1] -0.018 | [2] 0.035 | [3] 0.011 | [4] -0.015 | [5] -0.026 | [6] 0.007 | [7] -0.074 | [8] -0.009 | [9] 0.031 | [10] 0.049 | [11] -0.032 | [12] -0.155 | [13] 0.014 | [14] -0.006 | [15] -0.001 | [16] 0.017 | [17] 0.05 | [18] -0.017 | [19] 0.027 | [20] 0.013

HEATR3 (UniProt Q7Z4Q2)
inactive: [1] 0.025 | [2] 0.026 | [3] 0.026 | [4] -0.048 | [5] -0.028 | [6] 0.032 | [7] -0.064 | [8] -0.089 | [9] -0.019 | [10] 0.026 | [11] 0.007 | [12] -0.129 | [13] 0.02 | [14] 0.012 | [15] 0 | [16] 0.014 | [17] 0.116 | [18] 0.018 | [19] -0.046 | [20] 0.003

HDAC3 (UniProt O15379)
inactive: [1] 0.035 | [2] 0.026 | [3] -0.038 | [4] -0.023 | [5] -0.003 | [6] 0.001 | [7] 0.023 | [8] 0.052 | [9] -0.04 | [10] -0.006 | [11] 0.005 | [12] -0.039 | [13] 0.013 | [14] -0.023 | [15] 0.069 | [16] 0.008 | [17] -0.057 | [18] 0.02 | [19] -0.015 | [20] 0.014

H1-5 (UniProt P16401)
inactive: [1] 0 | [2] -0.013 | [3] -0.004 | [4] 0.049 | [5] 0.013 | [6] -0.05 | [7] -0.02 | [8] 0.02 | [9] -0.057 | [10] -0.027 | [11] 0.031 | [12] 0.076 | [13] -0.001 | [14] -0.025 | [15] 0.114 | [16] 0.019 | [17] -0.027 | [18] 0.027 | [19] 0.009 | [20] -0.023

GSKIP (UniProt Q9P0R6)
inactive: [1] 0.067 | [2] 0.071 | [3] 0.207 | [4] 0.024 | [5] 0.04 | [6] -0.012 | [7] 0.014 | [8] -0.111 | [9] -0.065 | [10] -0.158 | [11] 0.07 | [12] 0.059 | [13] -0.013 | [14] 0.018 | [15] 0.021 | [16] 0.746 | [17] -0.136 | [18] 0.049 | [19] -0.087 | [20] -0.124

GRIPAP1 (UniProt Q4V328)
inactive: [1] 0.003 | [2] 0.009 | [3] -0.003 | [4] 0.032 | [5] -0.007 | [6] -0.013 | [7] 0.097 | [8] -0.053 | [9] 0.03 | [10] 0.014 | [11] 0.015 | [12] 0.026 | [13] 0.023 | [14] 0.004 | [15] 0.007 | [16] 0.005 | [17] -0.056 | [18] 0.011 | [19] -0.013 | [20] -0.006
